Measurements reported in PubChem BioAssay AID504795 (Drosophila RNAi Screening Center, 2011)
Aim: 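Genes required for normal axon extension and glial cell shape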 (primary screen). Cells: primary Drosophila neurons and glia. Reagents: long dsRNA against Drosophila genes, 250 ng dsRNA per well. Timing: one week. Detection: 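GFP-labelled neurons and glia imaged live by automated microscope one week after 250 ng dsRNA per well; morphology scored by eye as descriptive phenotype terms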.
This is not the whole library: the list holds selected reagents. 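Every listed dsRNA shows some phenotype; how reagents were selected for listing is not stated.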 The numbers tell different reagents against one gene apart. A plus sign joins genes that one reagent is predicted to hit.

| predicted target | reagent no. | phenotype seen, replicate 1 | phenotype seen, replicate 2 |
| --- | --- | --- | --- |
| Ercc1 | 1 | too many neurite branches | – |
| CG44001 + CG33995 | 1 | abnormal cell clusters | – |
| CG44001 + CG33995 | 2 | axon bundles split apart | – |
| CG5180 | 1 | sheet-like cell extensions | – |
| Pcf11 (Pcf11 cleavage and polyadenylation factor subunit) | 1 | sheet-like cell extensions | – |
| Zasp67 (Z band alternatively spliced PDZ-motif protein 67) | 1 | beaded; swollen axons | – |
| CG14321 | 1 | sheet-like cell extensions | – |
| SF2 (Splicing factor 2) | 1 | too many neurite branches | – |
| GstT2 (Glutathione S transferase T2) | 1 | too many neurite branches | – |
| Lcp65Af | 1 | too many neurite branches | – |
| Cpr62Bb (Cuticular protein 62Bb) | 1 | too many neurite branches | – |
| psh (persephone) | 1 | weaker green signal | – |
| RpS12 (Ribosomal protein S12) | 1 | too many neurite branches | – |
| Sxl + CG14425 (retired record) | 1 | reduced axon outgrowth | – |
| Vrp1 (Verprolin 1) | 1 | axon bundles split apart | – |
| rush (rush hour) | 1 | too many neurite branches | – |
| CG12862 | 1 | fewer cells | – |
| Mkk4 (MAP kinase kinase 4) | 1 | sheet-like cell extensions | – |
| RpS27 (Ribosomal protein S27) | 1 | cell fragments present | – |
| Ldaf1 (Lipid droplet assembly factor 1) | 1 | too many neurite branches | – |
| CG13039 | 1 | too many neurite branches | – |
| Polr1A (RNA polymerase I subunit A) | 1 | axon bundles split apart | – |
| sbr (small bristles) | 1 | abnormal cell clusters | – |
| Dh31-R (Diuretic hormone 31 Receptor) | 1 | too many neurite branches | – |
| Dh31-R (Diuretic hormone 31 Receptor) | 2 | fewer cells | – |
| CG11583 | 1 | axon bundles split apart | – |
| CG4866 | 1 | axon bundles split apart | – |
| CG11159 | 1 | abnormal cell clusters | – |
| rec (recombination-defective) | 1 | axon bundles split apart | – |
| stan (starry night) | 1 | too many neurite branches | – |
| CG8613 | 1 | axon bundles split apart | – |
| Mgat4a | 1 | axon bundles split apart | – |
| Arp3 (Actin-related protein 3) | 1 | axon bundles split apart | – |
| kek3 (kekkon 3) | 1 | sheet-like cell extensions | – |
| ppk31 (pickpocket 31) | 1 | too many neurite branches | – |
| CR30068 (retired record) | 1 | axon bundles split apart | – |
| RpL15 (Ribosomal protein L15) | 1 | axon bundles split apart | – |
| laf (labial associated factor) | 1 | reduced axon outgrowth | – |
| Nazo | 1 | reduced axon outgrowth | axon bundles split apart |
| Ipk1 (Inositol phosphate kinase 1) | 1 | too many neurite branches | – |
| Ipk1 (Inositol phosphate kinase 1) | 2 | axon bundles split apart | – |
| cyp33 + CG34194 | 1 | too many neurite branches | – |
| CG8187 | 1 | too many neurite branches | – |
| rumi | 1 | too many neurite branches | – |

Reprinted from the listing, 6 entries:
| predicted target | reagent no. | phenotype seen, replicate 1 | phenotype seen, replicate 2 |
| --- | --- | --- | --- |
| CR30068 (retired record) | 1 | axon bundles split apart | – |
| RpL15 (Ribosomal protein L15) | 1 | axon bundles split apart | – |
| laf (labial associated factor) | 1 | reduced axon outgrowth | – |
| Nazo | 1 | reduced axon outgrowth | axon bundles split apart |
| Ipk1 (Inositol phosphate kinase 1) | 1 | too many neurite branches | – |
| Ipk1 (Inositol phosphate kinase 1) | 2 | axon bundles split apart | – |
